This note sets out measurements from the supplement of paper PMC6411743.

Amino acid sequences for entries named in this document (tags omitted). A change or cut given only in a name is not applied to a line headed by its entry.
UniProt Q96GC9: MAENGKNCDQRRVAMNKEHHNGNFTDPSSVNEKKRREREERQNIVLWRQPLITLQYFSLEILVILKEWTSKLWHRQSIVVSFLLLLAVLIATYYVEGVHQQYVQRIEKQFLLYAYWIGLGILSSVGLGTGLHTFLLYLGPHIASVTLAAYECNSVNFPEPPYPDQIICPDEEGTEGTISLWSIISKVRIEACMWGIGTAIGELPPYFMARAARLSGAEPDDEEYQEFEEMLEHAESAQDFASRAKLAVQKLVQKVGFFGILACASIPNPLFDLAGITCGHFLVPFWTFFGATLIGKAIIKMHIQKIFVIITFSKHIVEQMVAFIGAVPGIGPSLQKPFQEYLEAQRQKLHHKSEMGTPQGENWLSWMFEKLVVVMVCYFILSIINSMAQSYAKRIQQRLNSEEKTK
UniProt Q96HN2, whole entry: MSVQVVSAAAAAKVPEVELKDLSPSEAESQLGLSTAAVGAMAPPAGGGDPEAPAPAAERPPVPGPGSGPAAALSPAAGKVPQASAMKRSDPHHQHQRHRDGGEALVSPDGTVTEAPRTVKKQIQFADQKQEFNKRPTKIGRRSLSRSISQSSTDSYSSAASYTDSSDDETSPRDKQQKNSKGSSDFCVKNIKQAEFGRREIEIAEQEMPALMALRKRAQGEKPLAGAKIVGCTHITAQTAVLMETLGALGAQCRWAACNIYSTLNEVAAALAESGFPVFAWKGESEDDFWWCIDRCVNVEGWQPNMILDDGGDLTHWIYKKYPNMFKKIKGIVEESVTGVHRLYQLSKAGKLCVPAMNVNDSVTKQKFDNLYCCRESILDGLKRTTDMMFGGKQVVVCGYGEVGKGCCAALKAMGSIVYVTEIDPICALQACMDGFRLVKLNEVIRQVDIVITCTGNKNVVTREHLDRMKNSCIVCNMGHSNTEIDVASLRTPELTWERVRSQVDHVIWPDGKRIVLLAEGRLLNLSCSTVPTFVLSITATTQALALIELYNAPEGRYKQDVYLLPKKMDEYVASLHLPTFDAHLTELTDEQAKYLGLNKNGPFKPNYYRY
UniProt Q96EU6: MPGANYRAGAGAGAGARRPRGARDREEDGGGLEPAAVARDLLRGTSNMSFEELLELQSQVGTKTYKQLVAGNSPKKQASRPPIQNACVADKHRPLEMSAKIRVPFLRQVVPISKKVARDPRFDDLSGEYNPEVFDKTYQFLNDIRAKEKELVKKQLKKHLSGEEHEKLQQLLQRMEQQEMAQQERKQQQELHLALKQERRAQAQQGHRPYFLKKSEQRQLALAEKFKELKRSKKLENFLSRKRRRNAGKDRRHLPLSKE
UniProt Q96H79: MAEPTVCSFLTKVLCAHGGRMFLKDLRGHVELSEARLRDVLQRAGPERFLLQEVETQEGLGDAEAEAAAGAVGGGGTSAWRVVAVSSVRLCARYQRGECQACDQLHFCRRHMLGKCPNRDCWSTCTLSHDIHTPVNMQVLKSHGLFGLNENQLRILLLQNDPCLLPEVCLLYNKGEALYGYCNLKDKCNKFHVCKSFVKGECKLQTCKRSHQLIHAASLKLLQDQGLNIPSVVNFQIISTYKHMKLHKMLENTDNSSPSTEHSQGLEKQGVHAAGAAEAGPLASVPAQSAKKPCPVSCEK
UniProt Q96BW5: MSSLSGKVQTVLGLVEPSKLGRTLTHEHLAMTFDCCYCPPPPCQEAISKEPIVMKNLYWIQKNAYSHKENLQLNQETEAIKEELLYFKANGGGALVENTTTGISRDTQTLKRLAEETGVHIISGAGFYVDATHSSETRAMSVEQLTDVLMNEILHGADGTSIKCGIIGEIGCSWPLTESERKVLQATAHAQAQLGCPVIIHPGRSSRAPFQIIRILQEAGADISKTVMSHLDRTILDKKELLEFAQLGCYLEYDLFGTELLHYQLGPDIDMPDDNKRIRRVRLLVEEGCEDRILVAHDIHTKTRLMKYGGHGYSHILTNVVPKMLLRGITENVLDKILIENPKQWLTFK
UniProt Q8WUJ0: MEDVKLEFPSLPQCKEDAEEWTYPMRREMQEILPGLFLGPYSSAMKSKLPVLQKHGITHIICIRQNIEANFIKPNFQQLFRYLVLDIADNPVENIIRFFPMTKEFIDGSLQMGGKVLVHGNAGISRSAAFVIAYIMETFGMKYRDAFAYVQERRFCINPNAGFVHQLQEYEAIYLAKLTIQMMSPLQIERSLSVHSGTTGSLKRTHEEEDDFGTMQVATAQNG
UniProt Q96HY7: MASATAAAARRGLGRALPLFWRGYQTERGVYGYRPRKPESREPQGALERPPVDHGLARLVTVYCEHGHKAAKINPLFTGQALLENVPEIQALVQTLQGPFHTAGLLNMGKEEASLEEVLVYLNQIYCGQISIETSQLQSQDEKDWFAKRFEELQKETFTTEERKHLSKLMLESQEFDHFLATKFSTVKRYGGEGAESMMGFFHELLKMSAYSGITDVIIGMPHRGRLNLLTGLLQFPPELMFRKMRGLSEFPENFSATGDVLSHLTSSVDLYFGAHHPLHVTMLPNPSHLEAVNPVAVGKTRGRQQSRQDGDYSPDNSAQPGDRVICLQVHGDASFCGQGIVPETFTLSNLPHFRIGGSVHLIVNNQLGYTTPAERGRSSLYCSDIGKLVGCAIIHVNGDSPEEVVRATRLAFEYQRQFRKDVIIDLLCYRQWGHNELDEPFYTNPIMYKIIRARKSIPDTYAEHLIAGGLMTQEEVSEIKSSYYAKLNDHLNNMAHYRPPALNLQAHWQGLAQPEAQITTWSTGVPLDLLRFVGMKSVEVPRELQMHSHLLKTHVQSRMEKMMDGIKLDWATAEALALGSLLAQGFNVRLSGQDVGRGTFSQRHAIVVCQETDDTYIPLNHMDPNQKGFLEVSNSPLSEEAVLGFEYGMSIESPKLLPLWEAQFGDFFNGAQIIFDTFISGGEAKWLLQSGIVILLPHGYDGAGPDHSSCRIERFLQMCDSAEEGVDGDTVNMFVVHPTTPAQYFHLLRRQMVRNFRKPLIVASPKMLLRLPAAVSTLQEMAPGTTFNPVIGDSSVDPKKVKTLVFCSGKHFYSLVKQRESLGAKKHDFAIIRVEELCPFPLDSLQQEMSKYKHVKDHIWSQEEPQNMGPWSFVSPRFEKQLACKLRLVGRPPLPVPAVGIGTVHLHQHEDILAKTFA
UniProt Q92597: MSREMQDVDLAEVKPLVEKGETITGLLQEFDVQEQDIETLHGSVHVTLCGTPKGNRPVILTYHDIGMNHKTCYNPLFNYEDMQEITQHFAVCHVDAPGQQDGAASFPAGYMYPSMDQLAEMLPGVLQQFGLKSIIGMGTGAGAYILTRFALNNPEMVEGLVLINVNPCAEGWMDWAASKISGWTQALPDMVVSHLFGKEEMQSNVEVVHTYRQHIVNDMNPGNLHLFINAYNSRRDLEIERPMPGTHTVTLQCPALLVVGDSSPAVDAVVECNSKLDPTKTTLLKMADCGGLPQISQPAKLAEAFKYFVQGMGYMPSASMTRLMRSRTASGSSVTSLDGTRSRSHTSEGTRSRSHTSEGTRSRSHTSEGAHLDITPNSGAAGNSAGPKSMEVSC
UniProt Q92917: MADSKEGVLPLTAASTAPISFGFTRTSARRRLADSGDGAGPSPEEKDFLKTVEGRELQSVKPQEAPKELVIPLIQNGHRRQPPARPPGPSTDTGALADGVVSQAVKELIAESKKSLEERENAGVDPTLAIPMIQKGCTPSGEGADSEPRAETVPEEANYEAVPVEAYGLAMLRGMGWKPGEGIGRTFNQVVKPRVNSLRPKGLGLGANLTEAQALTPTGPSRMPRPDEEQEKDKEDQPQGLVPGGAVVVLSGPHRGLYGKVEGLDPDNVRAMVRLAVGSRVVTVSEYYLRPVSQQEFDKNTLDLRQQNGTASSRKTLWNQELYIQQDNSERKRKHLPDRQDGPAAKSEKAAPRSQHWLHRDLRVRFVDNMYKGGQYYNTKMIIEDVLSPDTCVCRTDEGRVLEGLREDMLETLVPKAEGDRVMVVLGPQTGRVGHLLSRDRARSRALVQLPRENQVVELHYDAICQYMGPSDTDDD
UniProt Q96FX7: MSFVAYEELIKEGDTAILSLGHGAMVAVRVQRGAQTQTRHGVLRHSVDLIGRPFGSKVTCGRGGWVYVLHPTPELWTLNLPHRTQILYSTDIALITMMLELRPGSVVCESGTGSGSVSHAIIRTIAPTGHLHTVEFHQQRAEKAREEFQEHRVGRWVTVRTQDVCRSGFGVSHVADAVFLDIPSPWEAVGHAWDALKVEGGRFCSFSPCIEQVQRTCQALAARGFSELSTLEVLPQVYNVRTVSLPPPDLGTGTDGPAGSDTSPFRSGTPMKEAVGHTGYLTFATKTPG
UniProt Q96E29: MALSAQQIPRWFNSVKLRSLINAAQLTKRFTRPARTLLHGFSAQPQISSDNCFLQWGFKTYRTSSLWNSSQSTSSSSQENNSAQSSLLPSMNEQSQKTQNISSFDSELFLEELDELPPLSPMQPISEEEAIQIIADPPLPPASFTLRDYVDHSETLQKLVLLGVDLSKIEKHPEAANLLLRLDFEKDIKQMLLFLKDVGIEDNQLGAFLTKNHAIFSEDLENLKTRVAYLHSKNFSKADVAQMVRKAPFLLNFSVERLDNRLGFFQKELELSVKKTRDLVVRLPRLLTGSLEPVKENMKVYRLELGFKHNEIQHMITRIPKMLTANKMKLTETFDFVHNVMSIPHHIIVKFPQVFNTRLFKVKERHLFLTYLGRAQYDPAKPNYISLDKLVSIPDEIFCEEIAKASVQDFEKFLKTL
UniProt Q96DA6: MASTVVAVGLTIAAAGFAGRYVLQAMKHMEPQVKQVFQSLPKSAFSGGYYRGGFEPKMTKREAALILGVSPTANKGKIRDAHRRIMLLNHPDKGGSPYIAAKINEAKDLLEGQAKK
UniProt Q92598: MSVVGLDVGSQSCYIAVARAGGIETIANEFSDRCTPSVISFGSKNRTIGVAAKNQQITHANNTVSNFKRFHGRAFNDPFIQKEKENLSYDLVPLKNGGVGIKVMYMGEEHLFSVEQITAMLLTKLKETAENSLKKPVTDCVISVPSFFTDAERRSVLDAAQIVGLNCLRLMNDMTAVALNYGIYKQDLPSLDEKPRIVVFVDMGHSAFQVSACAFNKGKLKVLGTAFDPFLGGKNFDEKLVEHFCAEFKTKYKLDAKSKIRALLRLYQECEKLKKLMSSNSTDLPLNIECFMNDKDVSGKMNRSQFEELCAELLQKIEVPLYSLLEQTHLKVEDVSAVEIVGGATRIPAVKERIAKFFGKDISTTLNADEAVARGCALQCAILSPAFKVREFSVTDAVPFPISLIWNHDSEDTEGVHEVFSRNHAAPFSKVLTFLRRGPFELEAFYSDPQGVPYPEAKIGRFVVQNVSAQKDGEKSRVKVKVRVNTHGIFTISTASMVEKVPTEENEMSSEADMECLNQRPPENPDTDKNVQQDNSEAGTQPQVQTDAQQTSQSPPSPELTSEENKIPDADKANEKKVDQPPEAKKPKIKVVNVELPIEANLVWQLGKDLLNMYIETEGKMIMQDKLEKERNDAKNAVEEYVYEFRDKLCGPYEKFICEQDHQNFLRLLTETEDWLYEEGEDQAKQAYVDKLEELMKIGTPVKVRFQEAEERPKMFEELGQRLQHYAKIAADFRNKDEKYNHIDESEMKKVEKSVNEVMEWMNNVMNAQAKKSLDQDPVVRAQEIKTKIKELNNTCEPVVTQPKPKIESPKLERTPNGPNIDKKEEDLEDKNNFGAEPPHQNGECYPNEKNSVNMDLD

Compound in this assay: Nc1nc2c(ncn2[C@@H]2O[C@H](COP(=O)(O)OP(=O)(O)OP(=O)(O)O)[C@@H](O)[C@H]2O)c(=O)[nH]1 [guanosine triphosphate]
As to the kind of experiment: NP40-soluble protein abundance relative to vehicle (solubility fold change) (ratio); higher = more soluble protein in presence of GTP. The method, boiled down:
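Jurkat crude lysate (Dounce-homogenised) was treated with eight concentrations from 0.1 to 10 mM for 10 min at room temperature, then 3 min at 37 °C. It was solubilised with 0.8% NP40 and benzonase (60 min, 4 °C) and ultracentrifuged, and the supernatant was TMT-labelled for LC-MS/MS. Intensities were vsn-normalised, and the value is the fold change against the NP40-processed vehicle per replicate, from three independent experiments.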

± gives the standard deviation of the averaged measurements. This is one part of the list.

In the case of UniProt Q96GC9, the NP40-soluble protein abundance reads like this: (concentration: 0.1mM) 1.01 ± 0.11; (concentration: 0.5mM) 1 ± 0.073; (concentration: 1mM) 0.787 ± 0.12; (concentration: 2mM) 0.754 ± 0.13; (concentration: 4mM) 0.757 ± 0.1; (concentration: 6mM) 0.687 ± 0.082. For the same target, the NP40-soluble protein abundance (concentration: 8mM) amounted to 0.829 ± 0.12 and the NP40-soluble protein abundance (concentration: 10mM) came to 0.883 ± 0.077.
For UniProt Q96HN2 and related entries, the NP40-soluble protein abundance runs as follows: (concentration: 0.1mM) 1.02 ± 0.078; (concentration: 0.5mM) 0.993 ± 0.041; (concentration: 1mM) 1.02 ± 0.025; (concentration: 2mM) 1.03 ± 0.045; (concentration: 4mM) 1.01 ± 0.067; (concentration: 6mM) 1.03 ± 0.067. The NP40-soluble protein abundance is, setting by setting: (concentration: 8mM) 1.04 ± 0.043; (concentration: 10mM) 1 ± 0.022.
Take UniProt Q96EU6 and related entries: the NP40-soluble protein abundance is, setting by setting: (concentration: 0.1mM) 1.04 ± 0.12; (concentration: 0.5mM) 1.1 ± 0.19; (concentration: 1mM) 1.15 ± 0.18; (concentration: 2mM) 1.25 ± 0.25; (concentration: 4mM) 1.33 ± 0.17; (concentration: 6mM) 1.44 ± 0.062. The NP40-soluble protein abundance by setting is: (concentration: 8mM) 1.33 ± 0.032; (concentration: 10mM) 1.42 ± 0.061.
With EAF1 (UniProt Q96JC9), the NP40-soluble protein abundance runs as follows: (concentration: 0.1mM) 0.827 ± 0.036; (concentration: 0.5mM) 0.865 ± 0.067; (concentration: 1mM) 0.848 ± 0.071; (concentration: 2mM) 0.873 ± 0.07; (concentration: 4mM) 0.812 ± 0.048; (concentration: 6mM) 0.858 ± 0.067. Further, the NP40-soluble protein abundance (concentration: 8mM) came to 0.844 ± 0.078 and the NP40-soluble protein abundance (concentration: 10mM) was 0.896 ± 0.06.
With MRPL24 (UniProt Q96A35), the NP40-soluble protein abundance reads like this: (concentration: 0.1mM) 1.13 ± 0.12; (concentration: 0.5mM) 1.22 ± 0.23; (concentration: 1mM) 1.43 ± 0.4; (concentration: 2mM) 1.59 ± 0.52; (concentration: 4mM) 1.66 ± 0.67; (concentration: 6mM) 1.5 ± 0.54. Moreover, the NP40-soluble protein abundance worked out at 1.55 ± 0.57 (concentration: 8mM) and 1.37 ± 0.52 (concentration: 10mM).
For the target UniProt Q8WXA9-2, the NP40-soluble protein abundance was 1.02 ± 0.067 (concentration: 0.1mM); 1.11 ± 0.044 (concentration: 0.5mM); 1.14 ± 0.077 (concentration: 1mM); 1.12 ± 0.082 (concentration: 2mM); 1.15 ± 0.067 (concentration: 4mM); 1.11 ± 0.07 (concentration: 6mM). In addition, the NP40-soluble protein abundance is 1.18 ± 0.035 (concentration: 8mM) and 1.18 ± 0.1 (concentration: 10mM).
For the target ZC3HAV1L (UniProt Q96H79), the NP40-soluble protein abundance (concentration: 0.1mM) came out at 0.955 ± 0.022; the NP40-soluble protein abundance (concentration: 0.5mM) is 0.981 ± 0.025; the NP40-soluble protein abundance (concentration: 1mM) stood at 0.954 ± 0.023; the NP40-soluble protein abundance (concentration: 2mM) amounted to 0.938 ± 0.042; the NP40-soluble protein abundance (concentration: 4mM) is 0.907 ± 0.044; the NP40-soluble protein abundance (concentration: 6mM) worked out at 0.914 ± 0.021. Further, the NP40-soluble protein abundance is, setting by setting: (concentration: 8mM) 0.897 ± 0.027; (concentration: 10mM) 0.929 ± 0.059.
Consider UniProt Q96BW5 and related entries, for which the NP40-soluble protein abundance amounted to 1.01 ± 0.024 (concentration: 0.1mM); 0.973 ± 0.039 (concentration: 0.5mM); 0.933 ± 0.04 (concentration: 1mM); 0.897 ± 0.027 (concentration: 2mM); 0.899 ± 0.019 (concentration: 4mM); 0.89 ± 0.051 (concentration: 6mM). The NP40-soluble protein abundance is, setting by setting: (concentration: 8mM) 0.89 ± 0.013; (concentration: 10mM) 0.84 ± 0.027.
For STYX (UniProt Q8WUJ0), the NP40-soluble protein abundance turned out to be 1.07 ± 0.13 (concentration: 0.1mM); 0.903 ± 0.12 (concentration: 0.5mM); 0.962 ± 0.043 (concentration: 1mM); 0.88 ± 0.024 (concentration: 2mM); 0.826 ± 0.092 (concentration: 4mM); 0.869 ± 0.16 (concentration: 6mM). In addition, the NP40-soluble protein abundance was determined as 0.966 ± 0.047 (concentration: 8mM) and 0.876 ± 0.082 (concentration: 10mM).
Regarding DHTKD1 (UniProt Q96HY7), the NP40-soluble protein abundance is, setting by setting: (concentration: 0.1mM) 1.1 ± 0.1; (concentration: 0.5mM) 1.1 ± 0.03; (concentration: 1mM) 1.05 ± 0.069; (concentration: 2mM) 1.03 ± 0.06; (concentration: 4mM) 1.01 ± 0.039; (concentration: 6mM) 1.05 ± 0.1. Moreover, the NP40-soluble protein abundance (concentration: 8mM) was 1.01 ± 0.057 and the NP40-soluble protein abundance (concentration: 10mM) was determined as 0.969 ± 0.069.
Take UniProt Q92597 and related entries: the NP40-soluble protein abundance runs as follows: (concentration: 0.1mM) 0.942 ± 0.083; (concentration: 0.5mM) 0.906 ± 0.06; (concentration: 1mM) 0.956 ± 0.071; (concentration: 2mM) 0.967 ± 0.11; (concentration: 4mM) 0.941 ± 0.1; (concentration: 6mM) 0.92 ± 0.12. The NP40-soluble protein abundance was 0.875 ± 0.032 (concentration: 8mM) and 0.932 ± 0.032 (concentration: 10mM).
On to GPKOW (UniProt Q92917), for which the NP40-soluble protein abundance runs as follows: (concentration: 0.1mM) 0.974 ± 0.07; (concentration: 0.5mM) 0.995 ± 0.067; (concentration: 1mM) 1.02 ± 0.077; (concentration: 2mM) 0.975 ± 0.086; (concentration: 4mM) 0.968 ± 0.071; (concentration: 6mM) 0.99 ± 0.059. Moreover, the NP40-soluble protein abundance is 0.998 ± 0.057 (concentration: 8mM) and 1.01 ± 0.088 (concentration: 10mM).
On to TRMT61A (UniProt Q96FX7), for which the NP40-soluble protein abundance reads like this: (concentration: 0.1mM) 1.06 ± 0.077; (concentration: 0.5mM) 1.07 ± 0.069; (concentration: 1mM) 1.01 ± 0.093; (concentration: 2mM) 1.06 ± 0.051; (concentration: 4mM) 1.03 ± 0.051; (concentration: 6mM) 1 ± 0.07. The NP40-soluble protein abundance (concentration: 8mM) came to 0.999 ± 0.15 and the NP40-soluble protein abundance (concentration: 10mM) stood at 0.994 ± 0.061.
For UniProt Q96E29 and related entries, the NP40-soluble protein abundance runs as follows: (concentration: 0.1mM) 1.01 ± 0.099; (concentration: 0.5mM) 1.01 ± 0.046; (concentration: 1mM) 1.05 ± 0.069; (concentration: 2mM) 0.961 ± 0.091; (concentration: 4mM) 1.01 ± 0.075; (concentration: 6mM) 0.92 ± 0.095. The NP40-soluble protein abundance came to 0.941 ± 0.12 (concentration: 8mM) and 0.946 ± 0.056 (concentration: 10mM).
With UniProt Q96DA6 and related entries, the NP40-soluble protein abundance by setting is: (concentration: 0.1mM) 0.894 ± 0.12; (concentration: 0.5mM) 0.836 ± 0.074; (concentration: 1mM) 1.03 ± 0.17; (concentration: 2mM) 1.04 ± 0.084; (concentration: 4mM) 1 ± 0.092; (concentration: 6mM) 1.01 ± 0.042. Besides, the NP40-soluble protein abundance runs as follows: (concentration: 8mM) 0.944 ± 0.13; (concentration: 10mM) 1.09 ± 0.17.
UniProt Q92598 and related entries: the NP40-soluble protein abundance (concentration: 0.1mM) was determined as 0.955 ± 0.058; the NP40-soluble protein abundance (concentration: 0.5mM) came out at 0.974 ± 0.057; the NP40-soluble protein abundance (concentration: 1mM) was 0.984 ± 0.06; the NP40-soluble protein abundance (concentration: 2mM) was found to be 0.934 ± 0.074; the NP40-soluble protein abundance (concentration: 4mM) stood at 0.932 ± 0.064; the NP40-soluble protein abundance (concentration: 6mM) was found to be 0.929 ± 0.058. Further, the NP40-soluble protein abundance (concentration: 8mM) worked out at 0.951 ± 0.059 and the NP40-soluble protein abundance (concentration: 10mM) was 0.945 ± 0.074.
